Strings that start with PEPTIDE1 are HELM notation: dots part the residues, brackets hold end groups and non-standard residues.
Experiment: general procedure: Boc solid-phase peptide synthesis; MBHA resin; DCC
Settings: whole synthesis, scale 2.4 mmoles

## PEPTIDE1{[ac].[Tyr(SO3H)].M.[dA].W.M.D.F.[am]}$$$$V2.0
  crude mass: 2.0 g

From patent US4490364A (The Salk Institute for Biological Studies, priority 1983, dated 1984)
